From publication PMC4675091

Experiments:
casein = assay: affinity purification with mass spectrometry; purified DARPP-32 or casein coupled to NHS-activated Sepharose; precleared rat striatal lysate, 2 h at 4 °C, 50 mM Tris-HCl pH 7.5, 0.5% Triton X-100, 1 mM DTT, 2 mM EDTA; salt step elution (band at 150 mM NaCl); excised bands by LC-MS/MS; only the target purified
[1] = target: T1, purified rat DARPP-32 (rat) (UniProt Q6J4I0); assay: as above
T1 sequence: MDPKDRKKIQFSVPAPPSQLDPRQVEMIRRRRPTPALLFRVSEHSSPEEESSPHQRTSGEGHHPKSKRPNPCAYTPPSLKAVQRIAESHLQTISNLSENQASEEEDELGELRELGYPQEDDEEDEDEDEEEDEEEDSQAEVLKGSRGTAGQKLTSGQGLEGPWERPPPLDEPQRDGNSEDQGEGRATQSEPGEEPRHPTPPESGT

binding (casein): no binding
binding [1]: binds
B1: β-adducin (rat striatal lysate) (protein, UniProt Q05764 1-725)
chain: MSEDTVPEAASPPPSQGQHYFDRFSEDDPEYLRLRNRAADLRQDFNLMEQKKRVTMILQSPSFREELEGLIQEQMKKGNNSSNIWALRQIADFMASTSHAVFPASSMNFSMMTPINDLHTADSLNLAKGERLMRCKISSVYRLLDLYGWAQLSDTYVTLRVSKEQDHFLISPKGVSCSEVTASSLIKVNILGEVVEKGSSCFPVDTTGFSLHSAIYAARPDVRCAIHLHTPATAAVSAMKCGLLPVSHNALLVGDMAYYDFNGEMEQEADRINLQKCLGPTCKILVLRNHGMVALGDTVEEAFYKVFHLQAACEVQVSALSSAGGTENLILLEQEKHRPHEVGSVQWAGSTFGPMQKSRLGEHEFEALMRMLDNLGYRTGYTYRHPFVQEKTKHKSEVEIPATVTAFVFEEDGVPVPALRQHAQKQQKEKTRWLNTPNTYLRVNVADEVQRNMGSPRPKTTWMKADEVEKSSSGMPIRIENPNQFVPLYTDPQEVLDMRNKIREQNRQDIKSAGPQSQLLASVIAEKSRSPSTESQLASKGDADTKDELEETVPNPFSQLTDQELEEYKKEVERKKLEQEQEGEKDAATEEPGSPVKSTPASPVQSPTRAGTKSPAVSPSKASEDAKKTEVSEANTEPEPEKPEGVVVNGKEEEPCVEEVLSKGPGQMTTNADTDGDSYKDKTESVTSGPLSPEGSPSKSPSKKKKKFRTPSFLKKSKKKEKVES

binding (casein): no binding
binding [1]: binds
B2: α-adducin (rat striatal lysate) (protein, UniProt Q63028 1-735)
chain: MNGDTRAAVVTSPPPTTAPHKERYFDRVDENNPEYLRERNMAPDLRQDFNMMEQKKRVSMILQSPAFCEELESMIQEQFKKGKNPTGLLALQQIADFMTASVPNVYPAAPQGGMAALNMSLGMVTPVNDLRGSDSIAYDKGEKLLRCKLAAFYRLADLFGWSQLIYNHITTRVNSEQEHFLIVPFGLLYSEVTASSLVKVNLQGDIVDRGSTNLGVNQAGFTLHSAIYAARPDAKCIVHIHTPAGAAVSAMKCGLLPISPEALSLGEVAYHDYHGILVDEEEKILIQKNLGPKSKVLILRNHGLVSVGESVEEAFYYIHNLVVACEIQVRTLASAGGPDNLVLLDPGKYKAKSRSPGTPAGEGSGSPPKWQIGEQEFEALMRMLDNLGYRTGYPYRYPALRERSKKYSDVEVPASVTGHSFASDGDSGTCSPLRHSFQKQQREKTRWLNSGRGDDASEEGQNGSSPKSKTKWTKEDGHRTSTSAVPNLFVPLNTNPKEVQEMRNKIREQNLQDIKTAGPQSQVLCGVMMDRSLVQGELVTASKAIIEKEYQPHVIVSTTGPNPFNTLTDRELEEYRREVERKQKGSEENLDETREQKEKSPPDQSAVPNTPPSTPVKLEGGLPQEPTSRDGSDATTSKPTPPDLSPDEPSEALAFPTVAEEAHASPDTTQPLAEADPEPASASAPGAEEVASPATEEGSPMDPGSDGSPGKSPSKKKKKFRTPSFLKKSKKKSDS

These are yes or no findings as the source states them, for the method shown. In cells and extracts the contact can be indirect. These calls come from enrichment with a bait or labelling near it, and not all partners need be listed. For some of these results: No binding means not detected with the bait. One block for each binder: values may come before it.
